# Experimental data reported in patent publication US20040219228A1, “Animal model for inflammatory bowel disease” (Pfizer Inc, priority 2003, published 2004).
# At least one structure is not confirmed: it was looked up by name or label, or the drawing left a doubt.
# Legend:
# [1] = system: mdr1a^−/− mice; experiment: mdr1a−/− mice given chlorinated drinking water as IBD model: clinical signs, body weight, colon and caecum weights; type: in vivo, mouse; settings: all doses tested (0.05, 0.3, 2 mg/kg s.c.)
# Text: Forty male mdr1a^−/− mice (strain FVB.129P2-Pgy3^tm1 N7) and six control male mice (mdr1a^+/+) from the same genetic background (FVB; strain FVB/NTac) (6-8 weeks old) were obtained from Taconic Farms (U.S.A). Mice were individually housed in solid bottom cages containing autoclaved Bee Kay bedding from Bantin & Kingman (U.K.) with the addition of Envirodri, a nesting material made from virgin paper, free from deodorising chemicals, to provide enrichment. Mice were fed on RAT & Mouse No 1 maintenance diet (RMI (E) SQC) (Special Diet services, Witham, Essex, U.K.) on arrival at Pfizer. For this study we used bottled water and Klortabs (5 ppm) (Arrowmight Biosciences, U.K.) to eliminate the possibility of water borne spreading of bacterial pathogens and to provide a water supply with constant levels of chlorine. […]
# Data were analysed for the 29 mdr1a^−/− and 6 mdr1a^+/+ mice, which completed the study. Differences between vehicle treated mdr1a^−/− and mdr1a^+/+ mice were analysed using a two sample t-test (assuming equal variance for IFN-γ, growth rate in the acclimatisation period and final weight, and unequal variance for IL-8, colon weight, caecum weight, colon to body weight ratio, caecum to body weight ratio and growth rate during the study period). The effects of dexamethasone treatment were analysed using analysis of variance (ANOVA) allowing for culling group.
# [2] = system: colon/rectum of mdr1a^−/− mice; experiment: Histological grading of colitis severity (score 0-4); type: in vivo, mouse
# Procedure: Following the acclimatisation period, mdr1a^−/− mice with mild and moderate disease scores (mild disease (0-3) was defined by absence of gain or mild body weight loss (<0.5 g) and no other symptoms, whereas moderate disease (4-10) was defined by similar symptoms as a previous group but with soft faeces or greater loss in body weight (>20%) were randomised into 4 groups and dosed subcutaneously (s.c.) with vehicle (water, n=8) or dexamethasone (0.05 mg/kg, n=9; 0.3 mg/kg, n=8 or 2 mg/kg, n=8) daily for 7 days. The 6 mdr1a^+/+ mice received vehicle (water). During the study period, one mouse from the group treated with 0.3 mg/kg dexamethasone was found dead and two were euthanised (one from the vehicle-treated group and one from the group treated with 0.05 mg/kg dexamethasone). At the end of the study all mice were euthanased. The colon and caecum from each mouse was removed and weighed. […]
# The animals were necropsied. […] In addition, the mucosal height of the whole colon/rectum were assessed about every 100 μm with a standard interactive microcomputer-assisted image analysis system.
# Colitis severity score is an ordered categorical measure graded on a scale of 0-4. This type of data is generally analysed using a proportional odds model, however due to the small sample size this was not appropriate and ANOVA was used. […]
structure (smiles),measurement,setting,value
C[C@@H]1C[C@H]2[C@@H]3CCC4=CC(=O)C=C[C@]4(C)[C@@]3(F)[C@@H](O)C[C@]2(C)[C@@]1(O)C(=O)CO [dexamethasone],Effect on absolute caecum weights vs. vehicle,[1]; p<0.01,reduced
same,Effect on caecum to body weight ratios vs. vehicle,[1]; p<0.015,reduced
same,Colitis severity score with increasing dose,"[2]; 0.05-2 mg/kg s.c., overall difference between treatment means not significant (p>0.10)",decreasing trend
same,Effect on colitis severity score compared with vehicle group,[2]; highest dose 2 mg/kg,significantly decreased
